These are yes or no findings as the source states them, for the method shown. Binding seen in cells or lysates may run through a third protein. Here binding means that the protein was enriched with, or labelled near, the bait; the list need not be complete.
Biological target: CDK1 (human (endogenous in PC9 and H358)) (UniProt P06493)
Assay: affinity purification with mass spectrometry; CDK1 co-IP with LC/MS in LINC00880-overexpressed LUAD cells

By UniProt entry, the sequences of proteins in these tests, tags left out.
UniProt P06493: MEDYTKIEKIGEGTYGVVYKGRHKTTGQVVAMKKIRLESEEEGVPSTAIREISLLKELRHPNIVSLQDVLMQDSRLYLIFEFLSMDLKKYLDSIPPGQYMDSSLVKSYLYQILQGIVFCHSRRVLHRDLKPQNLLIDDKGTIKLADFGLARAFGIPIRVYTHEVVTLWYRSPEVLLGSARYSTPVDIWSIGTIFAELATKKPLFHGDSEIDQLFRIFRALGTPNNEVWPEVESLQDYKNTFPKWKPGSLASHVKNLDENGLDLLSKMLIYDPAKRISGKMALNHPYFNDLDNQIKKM

binding: binds
B1: PRDX1 (protein, UniProt Q06830 1-199)
chain: MSSGNAKIGHPAPNFKATAVMPDGQFKDISLSDYKGKYVVFFFYPLDFTFVCPTEIIAFSDRAEEFKKLNCQVIGASVDSHFCHLAWVNTPKKQGGLGPMNIPLVSDPKRTIAQDYGVLKADEGISFRGLFIIDDKGILRQITVNDLPVGRSVDETLRLVQAFQFTDKHGEVCPAGWKPGSDTIKPDVQKSKEYFSKQK

Source: publication PMC10449921
